Assay results from the supplement of paper PMC10849652.
The other results are listed elsewhere or left out.

The chains behind the UniProt entries cited, without tags or fusion partners. Where a name states a change or a piece, a line headed by the entry shows the natural chain unless it says otherwise.
UniProt Q9NVG8: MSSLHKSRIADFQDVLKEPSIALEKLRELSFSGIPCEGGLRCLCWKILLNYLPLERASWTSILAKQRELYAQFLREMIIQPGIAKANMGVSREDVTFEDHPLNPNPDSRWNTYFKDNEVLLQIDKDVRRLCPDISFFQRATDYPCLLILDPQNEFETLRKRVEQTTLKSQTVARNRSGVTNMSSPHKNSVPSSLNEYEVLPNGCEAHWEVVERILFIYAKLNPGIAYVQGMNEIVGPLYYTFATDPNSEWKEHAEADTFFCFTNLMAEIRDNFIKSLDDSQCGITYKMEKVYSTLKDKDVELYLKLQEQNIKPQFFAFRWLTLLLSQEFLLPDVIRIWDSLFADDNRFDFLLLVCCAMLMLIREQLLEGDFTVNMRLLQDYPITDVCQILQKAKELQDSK
UniProt Q9BYX2: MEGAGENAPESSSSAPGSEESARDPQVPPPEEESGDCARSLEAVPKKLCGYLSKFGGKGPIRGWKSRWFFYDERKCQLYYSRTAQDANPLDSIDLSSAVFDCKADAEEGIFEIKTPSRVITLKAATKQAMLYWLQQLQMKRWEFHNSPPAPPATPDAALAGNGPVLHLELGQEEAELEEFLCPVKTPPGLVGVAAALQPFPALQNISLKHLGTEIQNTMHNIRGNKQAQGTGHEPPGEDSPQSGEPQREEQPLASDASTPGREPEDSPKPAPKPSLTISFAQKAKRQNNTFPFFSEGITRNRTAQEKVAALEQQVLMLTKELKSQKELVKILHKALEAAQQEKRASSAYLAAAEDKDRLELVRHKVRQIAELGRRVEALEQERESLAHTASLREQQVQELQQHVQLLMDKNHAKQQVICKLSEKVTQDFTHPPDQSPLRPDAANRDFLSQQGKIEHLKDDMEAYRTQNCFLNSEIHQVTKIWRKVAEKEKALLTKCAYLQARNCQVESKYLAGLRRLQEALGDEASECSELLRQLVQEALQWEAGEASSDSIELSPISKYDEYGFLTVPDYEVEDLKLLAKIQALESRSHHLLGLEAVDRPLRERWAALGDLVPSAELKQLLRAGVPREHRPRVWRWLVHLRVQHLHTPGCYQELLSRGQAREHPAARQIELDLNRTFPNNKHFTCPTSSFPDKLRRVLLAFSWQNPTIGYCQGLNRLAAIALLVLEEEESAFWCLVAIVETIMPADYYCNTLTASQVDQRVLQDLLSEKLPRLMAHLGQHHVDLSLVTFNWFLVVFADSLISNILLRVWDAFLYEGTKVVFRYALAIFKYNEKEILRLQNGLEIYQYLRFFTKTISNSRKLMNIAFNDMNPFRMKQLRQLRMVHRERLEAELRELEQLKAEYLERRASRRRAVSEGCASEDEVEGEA
UniProt Q9C0B7: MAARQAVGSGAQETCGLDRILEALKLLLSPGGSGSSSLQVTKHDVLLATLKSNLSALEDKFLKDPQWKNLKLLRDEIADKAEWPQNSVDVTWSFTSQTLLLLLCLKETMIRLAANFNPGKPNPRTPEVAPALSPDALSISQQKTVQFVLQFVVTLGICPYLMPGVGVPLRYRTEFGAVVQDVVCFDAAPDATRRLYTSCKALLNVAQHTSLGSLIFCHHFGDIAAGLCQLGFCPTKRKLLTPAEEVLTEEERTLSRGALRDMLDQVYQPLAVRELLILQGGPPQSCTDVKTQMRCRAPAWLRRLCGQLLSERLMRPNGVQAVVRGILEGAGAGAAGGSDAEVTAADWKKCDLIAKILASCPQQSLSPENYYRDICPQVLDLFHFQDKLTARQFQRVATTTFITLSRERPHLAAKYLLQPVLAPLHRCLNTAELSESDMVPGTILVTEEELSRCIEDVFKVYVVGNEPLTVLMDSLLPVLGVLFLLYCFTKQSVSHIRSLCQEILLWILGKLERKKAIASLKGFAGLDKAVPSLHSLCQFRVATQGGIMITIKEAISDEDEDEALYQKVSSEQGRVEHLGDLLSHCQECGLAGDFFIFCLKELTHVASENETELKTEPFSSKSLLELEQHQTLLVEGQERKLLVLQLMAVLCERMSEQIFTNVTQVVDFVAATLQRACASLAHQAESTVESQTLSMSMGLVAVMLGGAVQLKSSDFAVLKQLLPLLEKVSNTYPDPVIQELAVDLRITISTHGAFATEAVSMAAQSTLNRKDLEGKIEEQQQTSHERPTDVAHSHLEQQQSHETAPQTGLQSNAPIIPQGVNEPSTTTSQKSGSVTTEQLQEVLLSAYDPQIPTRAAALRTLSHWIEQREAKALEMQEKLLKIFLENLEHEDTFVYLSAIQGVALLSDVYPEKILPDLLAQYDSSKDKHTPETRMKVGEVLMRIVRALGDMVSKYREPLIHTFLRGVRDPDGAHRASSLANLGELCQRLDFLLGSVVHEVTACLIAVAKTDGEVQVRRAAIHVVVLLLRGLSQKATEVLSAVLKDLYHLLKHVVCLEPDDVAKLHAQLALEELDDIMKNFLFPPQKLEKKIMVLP
UniProt Q92844: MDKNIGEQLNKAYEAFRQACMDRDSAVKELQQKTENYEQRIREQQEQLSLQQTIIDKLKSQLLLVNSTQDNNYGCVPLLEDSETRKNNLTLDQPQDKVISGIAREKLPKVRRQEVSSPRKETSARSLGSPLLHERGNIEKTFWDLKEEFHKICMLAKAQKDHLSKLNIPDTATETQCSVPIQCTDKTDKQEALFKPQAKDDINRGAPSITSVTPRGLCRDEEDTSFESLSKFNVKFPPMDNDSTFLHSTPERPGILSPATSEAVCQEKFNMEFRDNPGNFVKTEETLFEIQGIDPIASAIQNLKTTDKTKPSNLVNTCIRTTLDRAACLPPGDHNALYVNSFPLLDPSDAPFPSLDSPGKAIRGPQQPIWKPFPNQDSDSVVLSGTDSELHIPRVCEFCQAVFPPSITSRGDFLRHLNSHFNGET
UniProt Q15554: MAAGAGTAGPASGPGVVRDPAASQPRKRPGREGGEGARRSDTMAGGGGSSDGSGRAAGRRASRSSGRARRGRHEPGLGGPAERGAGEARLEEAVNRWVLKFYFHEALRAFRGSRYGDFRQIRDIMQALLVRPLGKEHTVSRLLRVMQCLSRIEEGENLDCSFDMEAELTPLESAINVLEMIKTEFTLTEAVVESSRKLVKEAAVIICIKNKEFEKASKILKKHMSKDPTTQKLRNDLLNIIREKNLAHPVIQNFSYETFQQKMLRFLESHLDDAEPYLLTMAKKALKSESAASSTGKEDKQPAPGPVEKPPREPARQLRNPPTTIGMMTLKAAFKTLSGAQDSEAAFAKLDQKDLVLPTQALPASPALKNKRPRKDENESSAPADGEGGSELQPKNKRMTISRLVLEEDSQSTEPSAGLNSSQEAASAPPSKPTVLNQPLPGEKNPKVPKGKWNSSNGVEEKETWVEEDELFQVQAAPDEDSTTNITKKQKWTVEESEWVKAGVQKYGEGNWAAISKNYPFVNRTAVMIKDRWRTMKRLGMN
UniProt Q8TEA7: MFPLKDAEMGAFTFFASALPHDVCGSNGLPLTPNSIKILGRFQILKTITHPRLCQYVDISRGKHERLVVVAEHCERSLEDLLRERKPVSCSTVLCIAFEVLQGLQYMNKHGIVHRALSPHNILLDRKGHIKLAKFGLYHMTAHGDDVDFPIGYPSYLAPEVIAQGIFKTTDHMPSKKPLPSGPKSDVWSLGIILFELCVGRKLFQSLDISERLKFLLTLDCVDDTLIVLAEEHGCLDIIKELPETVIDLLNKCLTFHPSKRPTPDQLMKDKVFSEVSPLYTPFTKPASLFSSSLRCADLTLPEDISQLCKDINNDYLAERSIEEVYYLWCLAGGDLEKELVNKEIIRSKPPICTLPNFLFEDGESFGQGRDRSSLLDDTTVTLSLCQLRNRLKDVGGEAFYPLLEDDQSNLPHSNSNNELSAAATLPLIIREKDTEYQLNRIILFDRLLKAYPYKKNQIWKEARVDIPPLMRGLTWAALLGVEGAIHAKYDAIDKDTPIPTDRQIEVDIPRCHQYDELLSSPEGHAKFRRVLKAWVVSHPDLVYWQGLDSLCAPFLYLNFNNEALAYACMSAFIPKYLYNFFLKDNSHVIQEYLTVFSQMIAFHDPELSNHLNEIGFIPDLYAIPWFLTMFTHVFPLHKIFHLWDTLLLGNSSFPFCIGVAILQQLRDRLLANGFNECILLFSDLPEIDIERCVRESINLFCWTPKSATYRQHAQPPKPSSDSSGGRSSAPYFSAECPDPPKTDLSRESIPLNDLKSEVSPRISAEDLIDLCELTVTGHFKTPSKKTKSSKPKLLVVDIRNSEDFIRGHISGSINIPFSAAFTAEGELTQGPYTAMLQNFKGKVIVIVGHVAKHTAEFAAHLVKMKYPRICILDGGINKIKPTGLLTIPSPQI
UniProt Q0IIM8: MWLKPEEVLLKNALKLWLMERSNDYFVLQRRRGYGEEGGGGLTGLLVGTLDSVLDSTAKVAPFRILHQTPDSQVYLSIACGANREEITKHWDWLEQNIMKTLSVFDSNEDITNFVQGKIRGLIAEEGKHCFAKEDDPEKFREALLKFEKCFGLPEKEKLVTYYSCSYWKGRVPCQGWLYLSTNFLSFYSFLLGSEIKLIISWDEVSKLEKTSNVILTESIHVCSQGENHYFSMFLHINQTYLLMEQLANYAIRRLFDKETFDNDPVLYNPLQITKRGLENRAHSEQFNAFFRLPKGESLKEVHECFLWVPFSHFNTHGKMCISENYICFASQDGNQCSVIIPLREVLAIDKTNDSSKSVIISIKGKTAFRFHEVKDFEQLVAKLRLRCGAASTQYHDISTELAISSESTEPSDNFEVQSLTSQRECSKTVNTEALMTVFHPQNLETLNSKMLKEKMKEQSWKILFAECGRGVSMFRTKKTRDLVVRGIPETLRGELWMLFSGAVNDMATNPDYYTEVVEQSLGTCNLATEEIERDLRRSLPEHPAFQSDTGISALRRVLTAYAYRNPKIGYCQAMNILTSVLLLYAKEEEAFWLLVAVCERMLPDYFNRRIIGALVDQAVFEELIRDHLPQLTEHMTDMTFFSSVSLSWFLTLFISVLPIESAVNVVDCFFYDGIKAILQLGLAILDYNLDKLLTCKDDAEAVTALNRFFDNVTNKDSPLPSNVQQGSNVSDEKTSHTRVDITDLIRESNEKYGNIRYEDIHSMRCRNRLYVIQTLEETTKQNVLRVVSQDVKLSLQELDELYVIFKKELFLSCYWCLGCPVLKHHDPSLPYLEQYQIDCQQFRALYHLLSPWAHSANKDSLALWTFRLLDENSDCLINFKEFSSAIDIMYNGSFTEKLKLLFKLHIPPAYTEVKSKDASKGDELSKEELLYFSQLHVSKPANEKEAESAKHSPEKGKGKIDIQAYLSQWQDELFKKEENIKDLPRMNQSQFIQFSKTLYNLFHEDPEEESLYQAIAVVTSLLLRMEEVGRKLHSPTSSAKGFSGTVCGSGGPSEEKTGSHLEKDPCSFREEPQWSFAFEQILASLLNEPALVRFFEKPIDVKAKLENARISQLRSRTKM
UniProt Q9UBB9: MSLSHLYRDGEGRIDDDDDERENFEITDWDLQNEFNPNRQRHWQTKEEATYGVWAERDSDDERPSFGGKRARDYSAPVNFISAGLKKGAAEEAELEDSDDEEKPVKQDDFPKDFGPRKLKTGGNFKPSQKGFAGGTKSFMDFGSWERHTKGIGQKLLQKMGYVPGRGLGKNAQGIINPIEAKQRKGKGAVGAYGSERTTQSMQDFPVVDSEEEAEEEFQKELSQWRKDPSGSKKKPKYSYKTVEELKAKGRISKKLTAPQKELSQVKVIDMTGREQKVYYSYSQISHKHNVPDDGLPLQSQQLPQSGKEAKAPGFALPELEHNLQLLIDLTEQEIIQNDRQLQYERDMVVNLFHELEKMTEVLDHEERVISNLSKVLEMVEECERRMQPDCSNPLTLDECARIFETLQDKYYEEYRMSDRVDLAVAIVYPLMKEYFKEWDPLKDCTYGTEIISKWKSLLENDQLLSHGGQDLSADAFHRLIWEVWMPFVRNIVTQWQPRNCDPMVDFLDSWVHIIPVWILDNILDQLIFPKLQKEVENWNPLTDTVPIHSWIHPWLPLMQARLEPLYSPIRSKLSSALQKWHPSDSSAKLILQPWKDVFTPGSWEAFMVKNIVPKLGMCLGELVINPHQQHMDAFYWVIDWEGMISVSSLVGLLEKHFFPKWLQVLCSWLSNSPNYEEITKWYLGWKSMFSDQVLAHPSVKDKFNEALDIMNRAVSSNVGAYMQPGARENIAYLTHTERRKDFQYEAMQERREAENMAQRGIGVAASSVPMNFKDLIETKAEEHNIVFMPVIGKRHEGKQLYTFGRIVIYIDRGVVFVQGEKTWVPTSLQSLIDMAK
UniProt Q9NZ01: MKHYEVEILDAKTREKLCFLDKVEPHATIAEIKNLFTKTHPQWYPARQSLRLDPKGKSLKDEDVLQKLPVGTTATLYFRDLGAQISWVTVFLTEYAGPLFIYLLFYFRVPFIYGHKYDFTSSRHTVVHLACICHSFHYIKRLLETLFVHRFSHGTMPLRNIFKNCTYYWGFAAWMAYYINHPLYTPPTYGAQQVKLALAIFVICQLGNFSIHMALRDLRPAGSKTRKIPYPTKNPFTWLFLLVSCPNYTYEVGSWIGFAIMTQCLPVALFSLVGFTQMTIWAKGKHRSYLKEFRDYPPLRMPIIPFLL

compound: NC(=O)Nc1cc(-c2cccc(F)c2)sc1C(=O)N[C@H]1CCCNC1; experiment: log2 fold change, soluble protein after heating vs DMSO (PISA); higher = thermal stabilisation; K562 lysate, 10 uM; active = over 0.2 and 3.5 SD of the protein, either way, in both replicates (recomputed)
In short: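 K562 pellets were dounce-homogenised in PBS pH 7.4 with 1 mM MgCl2, and the crude extract at 1 mg/mL protein was treated with 10 μM compound for 30 min. Aliquots were heated for 3 min across 48°C-58°C, pooled, and brought to 0.5% NP-40 at 4°C; soluble protein was the supernatant after 21,000xg for 90 min. Soluble protein was quantified by TMTpro 16plex LC-MS/MS with channel sums equalised, and reported as log2 fold change in thermal stability against DMSO controls, with values from duplicates.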

log2 fold change, inactive:
TBC1D13 (UniProt Q9NVG8) 0.016
TBC1D2 (UniProt Q9BYX2) 0.075
TEX264 (UniProt Q9Y6I9) 0.181
TANGO6 (UniProt Q9C0B7) 0.046
TAOK3 (UniProt Q9H2K8) -0.003
TANK (UniProt Q92844) 0.161
TBC1D15 isoform 3 (UniProt Q8TC07) 0.005
TEX10 (UniProt Q9NXF1) -0.013
TBC1D20 isoform 3 (UniProt Q96BZ9) 0.067
TBC1D2B (UniProt Q9UPU7) 0.007
TAF6L (UniProt Q9Y6J9) 0.094
TAOK1 (UniProt Q7L7X3) -0.007
TBP (UniProt P20226) 0.047
TARS2 (UniProt Q9BW92) 0
TERF2 (UniProt Q15554) 0.028
TBCK (UniProt Q8TEA7) 0.062
TCEAL4 isoform 2 (UniProt Q96EI5) 0.089
TBC1D22B (UniProt Q9NU19) -0.004
TBC1D8B (UniProt Q0IIM8) 0.034
TBC1D10A (UniProt Q9BXI6) 0.056
TFIP11 (UniProt Q9UBB9) 0.048
TFDP1 (UniProt Q14186) 0.023
TEPSIN, A0A1B0GV70 -0.045
TESC (UniProt Q96BS2) -0.036
TECR (UniProt Q9NZ01) 0.041
TET1 (UniProt Q8NFU7) 0.083
TFRC (UniProt P02786) -0.003
TBCE (UniProt Q15813) 0.033
TAF8 isoform 2 (UniProt Q7Z7C8) -0.017
TBCC (UniProt Q15814) -0.008
TAF9 (UniProt Q16594) 0.013
TAF9B (UniProt Q9HBM6) 0.024
TBL3 (UniProt Q12788) 0.056

Taken from the results shown (2 entries):
log2 fold change, inactive:
TBC1D2 (UniProt Q9BYX2) 0.075
TEX264 (UniProt Q9Y6I9) 0.181
